Laboratory results: patent EP1466613A1, “Compositions for mucosal and oral administration comprising hCG fragments” (Biotempt B.V., priority 2003, dated 2004)
At least one peptide structure holds a part that was inferred or is arguable (an end, a ring closure or a residue). Some entries repeat one wording, which the source may state once for all of them. Ends that are not written are not given here. Peptide text beside a SMILES is read from it.

Assays:
NF-kB [1] = assay: EMSA of nuclear extracts for basal and LPS induced NF-kB translocation, RAW 264.7 mouse macrophages (second experiment); assay type: cell-based; details: RAW264.7 cells, 30 minutes incubation; for LPS induced translocation of NF-kB: LPS in combination with peptide; for basal levels of NF-kB in the nucleus: peptide alone without LPS
Protocol: The transcription factor NF-kB participates in the transcriptional regulation of a variety of genes. Nuclear protein extracts were prepared from LPS and peptide treated RAW264.7 cells or from LPS treated RAW264.7 cells. In order to determine whether the peptide modulates the translocation of NF-kB into the nucleus, on these extracts EMSA was performed. Here we see that indeed peptides are able to modulate the translocation of NF-kB since the amount of labeled oligonucleotide for NF-kB is reduced. […] RAW 264.7 mouse macrophages were cultured in DMEM, containing 10% or 2% FBS, penicillin, streptomycin and glutamine, at 37 °C, 5% CO2. Cells were seeded in a 12-wells plate (3x10^6 cells/ml) in a total volume of 1 ml for 2hours and then stimulated with LPS (E. coli 026:B6; Difco Laboratories, Detroit, MI, USA) and/or gene-regulatory peptide(1 microgr/ml). After 30 minutes of incubation plates were centrifuged and cells were collected for nuclear extracts. Nuclear extracts and EMSA were prepared according to Schreiber et al. Cells were collected in a tube and centrifuged for 5 minutes at 2000 rpm (rounds per minute) at 4°C (Universal 30 RF, Hettich Zentrifuges). The pellet was washed with ice-cold Tris buffered saline (TBS pH 7.4) and resuspended in 400 µl of a hypotonic buffer A (10 mM HEPES pH 7.9, 10 mM KCl, 0.1 mM EDTA, 0.1 mM EGTA, 1 mM DTT, 0.5 mM PMSF and protease inhibitor cocktail (Complete^TM Mini, Roche) and left on ice for 15 minutes. Twenty five micro litre 10% NP-40 was added and the sample was centrifuged (2 minutes, 4000 rpm, 4°C). The supernatant (cytoplasmic fraction) was collected and stored at -70°C. The pellet, which contains the nuclei, was washed with 50 µl buffer A and resuspended in 50 µl buffer C (20 mM HEPES pH 7.9, 400 mM NaCl, 1 mM EDTA, 1 mM EGTA, 1 mM DTT, 0.5 mM PMSF and protease inhibitor cocktail and 10% glycerol). The samples were left to shake at 4°C for at least 60 minutes. Finally the samples were centrifuged and the supernatant (nucleic fraction) was stored at -70°C. Bradford reagent (Sigma) was used to determine the final protein concentration in the extracts. For electrophoretic mobility shift assays an oligonucleotide representing NF-κB binding sequence (5'-AGCTCAGAGGGGGACTTTCCGAGAG-3') was synthesized. Hundred pico mol sense and antisense oligo were annealed and labelled with γ-^32P-dATP using T4 polynucleotide kinase according to manufacture's instructions (Promega, Madison, WI). Nuclear extract (5-7.5 µg) was incubated for 30 minutes with 75000 cpm probe in binding reaction mixture (20 microliter) containing 0.5 µg poly dI-dC (Amersham Pharmacia Biotech) and binding buffer BSB (25 mM MgCl2, 5 mM CaCl2, 5mM DTT and 20% Ficoll) at room temperature. The DNA-protein complex was resolved from free oligonucleotide by electrophoresis in a 4-6% polyacrylamide gel (150 V, 2-4 hours). The gel was then dried and exposed to x-ray film. The transcription factor NF-kB participates in the transcriptional regulation of a variety of genes. Nuclear protein extracts were prepared from either LPS (1 mg/ml), peptide (1 mg/ml) or LPS in combination with peptide treated and untreated RAW264.7 cells. In order to determine whether the peptides modulate the translocation of NF-kB into the nucleus, on these extracts EMSA was performed. Peptides are able to modulate the basal as well as LPS induced levels of NF-kB. […] Basal levels of NF-kB in the nucleus was decreased by […], […], LQG and LQGV while basal levels of NF-kB in the nucleus was increased by […], VLPALPQ, GVLPALP, VVC, MTRV, MTR and […].

NF-kB [2] = assay: EMSA of nuclear extracts for NF-kB translocation, LPS and peptide treated RAW264.7 cells (first experiment); assay type: cell-based, mouse; details: LPS and peptide treated RAW264.7 cells versus LPS treated cells, amount of labeled oligonucleotide for NF-kB is reduced

| Compound | LPS induced translocation of NF-kB (NF-kB [1]) | basal levels of NF-kB in the nucleus (NF-kB [1]) | modulation of translocation of NF-kB into the nucleus (NF-kB [2]) |
| --- | --- | --- | --- |
| CC(C)C[C@H](N)C(=O)N[C@@H](CCC(N)=O)C(=O)NCC(=O)N[C@H](C(=O)O)C(C)C [LQGV] (H-LQGV-OH) | inhibition of LPS induced translocation of NF-kB | decreased | modulation of translocation of NF-kB |
| CC(C)C[C@H](N)C(=O)N[C@@H](CCC(N)=O)C(=O)NCC(=O)O [LQG] (H-Leu-Gln-Gly-OH) | inhibition of LPS induced translocation of NF-kB | decreased | modulation of translocation of NF-kB |
| CSCC[C@H](N)C(=O)N[C@H](C(=O)N[C@@H](CCCNC(=N)N)C(=O)N[C@H](C(=O)O)C(C)C)[C@@H](C)O [MTRV] (H-MTRV-OH) | promote LPS induced translocation of NF-kB | increased | modulation of translocation of NF-kB |
| CSCC[C@H](N)C(=O)N[C@H](C(=O)N[C@@H](CCCNC(=N)N)C(=O)O)[C@@H](C)O [MTR] (H-Met-Thr-Arg-OH) | inhibition of LPS induced translocation of NF-kB | increased | modulation of translocation of NF-kB |
| CC(C)[C@H](N)C(=O)N[C@H](C(=O)N[C@@H](CS)C(=O)O)C(C)C [VVC] (H-Val-Val-Cys-OH) | inhibition of LPS induced translocation of NF-kB | increased | modulation of translocation of NF-kB |
| GVLPALP [GVLPALP] | promote LPS induced translocation of NF-kB | increased | modulation of translocation of NF-kB |
| GVLPALPQ | inhibition of LPS induced translocation of NF-kB | increased | modulation of translocation of NF-kB |
| VLPALP [VLPALP] | inhibition of LPS induced translocation of NF-kB | – | modulation of translocation of NF-kB |
| VLPALPQ [VLPALPQ] | promote LPS induced translocation of NF-kB | increased | modulation of translocation of NF-kB |
| VLPALPQVVC | inhibition of LPS induced translocation of NF-kB | decreased | modulation of translocation of NF-kB |
